Data from PMC12615670.
These are yes or no findings as the source states them, for the method shown. In cells and extracts the contact can be indirect. Some results given as binding are weak or reduced against the parent protein; the word gives no strength. One block for each substance: values may come before it.

The chains behind the UniProt entries cited, without tags or fusion partners. Where a name states a change or a piece, a line headed by the entry shows the natural chain unless it says otherwise. Residues count along the entry.
UniProt P06213: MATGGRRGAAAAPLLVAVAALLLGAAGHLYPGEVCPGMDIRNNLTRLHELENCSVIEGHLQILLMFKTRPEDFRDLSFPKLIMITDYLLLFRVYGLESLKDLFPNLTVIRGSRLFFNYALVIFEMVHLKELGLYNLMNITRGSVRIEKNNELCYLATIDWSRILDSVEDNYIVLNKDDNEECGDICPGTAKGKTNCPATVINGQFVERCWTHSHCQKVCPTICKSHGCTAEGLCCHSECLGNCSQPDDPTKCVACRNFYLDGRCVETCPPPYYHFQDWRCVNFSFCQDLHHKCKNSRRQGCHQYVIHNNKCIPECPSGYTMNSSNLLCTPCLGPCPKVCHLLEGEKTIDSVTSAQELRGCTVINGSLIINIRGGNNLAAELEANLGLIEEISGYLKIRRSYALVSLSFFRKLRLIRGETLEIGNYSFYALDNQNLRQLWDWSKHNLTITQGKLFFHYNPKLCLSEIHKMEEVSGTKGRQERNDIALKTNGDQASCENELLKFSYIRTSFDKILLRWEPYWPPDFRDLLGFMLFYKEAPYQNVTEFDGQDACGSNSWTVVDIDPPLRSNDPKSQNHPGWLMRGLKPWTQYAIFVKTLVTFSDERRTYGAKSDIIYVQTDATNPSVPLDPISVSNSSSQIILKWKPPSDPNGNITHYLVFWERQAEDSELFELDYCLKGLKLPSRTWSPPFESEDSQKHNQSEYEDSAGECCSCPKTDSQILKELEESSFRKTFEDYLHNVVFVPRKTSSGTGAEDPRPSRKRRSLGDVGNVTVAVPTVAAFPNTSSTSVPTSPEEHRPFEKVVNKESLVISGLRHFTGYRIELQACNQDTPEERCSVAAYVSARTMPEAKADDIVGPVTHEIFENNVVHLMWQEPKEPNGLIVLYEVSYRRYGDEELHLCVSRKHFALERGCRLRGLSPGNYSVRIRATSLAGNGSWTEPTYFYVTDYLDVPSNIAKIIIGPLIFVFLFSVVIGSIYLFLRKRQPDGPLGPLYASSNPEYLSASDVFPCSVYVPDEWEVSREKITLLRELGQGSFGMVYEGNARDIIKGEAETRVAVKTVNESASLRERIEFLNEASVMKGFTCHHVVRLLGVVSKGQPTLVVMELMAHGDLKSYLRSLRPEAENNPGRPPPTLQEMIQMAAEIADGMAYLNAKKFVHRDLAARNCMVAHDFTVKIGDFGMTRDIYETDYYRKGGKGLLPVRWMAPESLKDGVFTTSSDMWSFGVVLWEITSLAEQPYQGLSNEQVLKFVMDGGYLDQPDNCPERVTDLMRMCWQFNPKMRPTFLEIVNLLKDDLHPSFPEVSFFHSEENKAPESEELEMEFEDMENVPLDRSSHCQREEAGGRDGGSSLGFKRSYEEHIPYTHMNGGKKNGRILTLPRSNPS
insulin receptor β subunit (IRβ) in HepG2 cells (human (endogenous in HepG2)): residues 763-1382 of P06213
UniProt P63010: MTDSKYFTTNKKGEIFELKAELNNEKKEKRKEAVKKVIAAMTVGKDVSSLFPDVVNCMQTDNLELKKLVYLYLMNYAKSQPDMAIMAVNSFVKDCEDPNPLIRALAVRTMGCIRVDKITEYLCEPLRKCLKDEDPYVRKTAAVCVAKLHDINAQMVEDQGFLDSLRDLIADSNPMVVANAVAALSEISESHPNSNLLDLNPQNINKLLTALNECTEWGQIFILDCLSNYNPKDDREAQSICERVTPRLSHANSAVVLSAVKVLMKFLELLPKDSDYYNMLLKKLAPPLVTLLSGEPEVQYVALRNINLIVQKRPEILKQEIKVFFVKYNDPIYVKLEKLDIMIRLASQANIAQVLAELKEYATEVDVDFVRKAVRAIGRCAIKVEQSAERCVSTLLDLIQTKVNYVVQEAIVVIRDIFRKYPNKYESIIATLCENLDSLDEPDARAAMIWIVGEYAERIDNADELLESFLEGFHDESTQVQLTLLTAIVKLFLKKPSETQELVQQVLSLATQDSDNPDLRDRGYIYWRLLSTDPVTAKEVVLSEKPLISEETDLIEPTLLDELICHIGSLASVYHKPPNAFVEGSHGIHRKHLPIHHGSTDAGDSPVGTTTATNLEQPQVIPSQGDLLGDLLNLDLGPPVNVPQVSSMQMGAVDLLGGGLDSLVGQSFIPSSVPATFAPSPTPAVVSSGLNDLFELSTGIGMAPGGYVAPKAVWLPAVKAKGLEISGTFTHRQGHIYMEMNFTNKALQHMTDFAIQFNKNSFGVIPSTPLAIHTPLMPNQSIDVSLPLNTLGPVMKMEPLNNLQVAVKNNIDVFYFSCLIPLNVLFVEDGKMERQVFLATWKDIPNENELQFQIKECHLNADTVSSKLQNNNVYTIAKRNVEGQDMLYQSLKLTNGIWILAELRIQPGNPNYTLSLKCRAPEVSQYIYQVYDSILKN
UniProt Q9DBG3: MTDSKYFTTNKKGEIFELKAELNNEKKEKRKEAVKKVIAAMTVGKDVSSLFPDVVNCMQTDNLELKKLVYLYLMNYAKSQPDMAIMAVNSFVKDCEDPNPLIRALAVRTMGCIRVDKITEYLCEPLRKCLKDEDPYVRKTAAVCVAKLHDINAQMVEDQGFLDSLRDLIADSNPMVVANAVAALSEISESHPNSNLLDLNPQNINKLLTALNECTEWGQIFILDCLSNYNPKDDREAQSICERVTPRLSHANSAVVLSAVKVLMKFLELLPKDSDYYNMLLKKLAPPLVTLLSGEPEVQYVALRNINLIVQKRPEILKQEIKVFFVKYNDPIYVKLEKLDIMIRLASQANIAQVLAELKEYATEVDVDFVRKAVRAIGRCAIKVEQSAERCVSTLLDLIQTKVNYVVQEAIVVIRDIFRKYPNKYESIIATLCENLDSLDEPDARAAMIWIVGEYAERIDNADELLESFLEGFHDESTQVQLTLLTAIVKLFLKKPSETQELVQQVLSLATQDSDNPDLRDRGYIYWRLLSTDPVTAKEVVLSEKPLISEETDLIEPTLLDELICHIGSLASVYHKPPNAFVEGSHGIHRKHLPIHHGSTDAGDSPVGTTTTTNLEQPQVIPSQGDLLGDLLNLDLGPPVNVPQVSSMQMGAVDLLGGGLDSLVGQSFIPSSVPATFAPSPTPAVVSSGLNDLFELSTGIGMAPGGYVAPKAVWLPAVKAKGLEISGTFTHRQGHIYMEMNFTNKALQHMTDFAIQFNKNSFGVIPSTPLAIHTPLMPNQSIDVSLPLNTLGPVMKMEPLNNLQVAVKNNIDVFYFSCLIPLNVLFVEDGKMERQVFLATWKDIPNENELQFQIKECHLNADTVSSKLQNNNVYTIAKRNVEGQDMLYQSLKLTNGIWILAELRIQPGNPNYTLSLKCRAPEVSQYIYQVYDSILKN
UniProt O60884: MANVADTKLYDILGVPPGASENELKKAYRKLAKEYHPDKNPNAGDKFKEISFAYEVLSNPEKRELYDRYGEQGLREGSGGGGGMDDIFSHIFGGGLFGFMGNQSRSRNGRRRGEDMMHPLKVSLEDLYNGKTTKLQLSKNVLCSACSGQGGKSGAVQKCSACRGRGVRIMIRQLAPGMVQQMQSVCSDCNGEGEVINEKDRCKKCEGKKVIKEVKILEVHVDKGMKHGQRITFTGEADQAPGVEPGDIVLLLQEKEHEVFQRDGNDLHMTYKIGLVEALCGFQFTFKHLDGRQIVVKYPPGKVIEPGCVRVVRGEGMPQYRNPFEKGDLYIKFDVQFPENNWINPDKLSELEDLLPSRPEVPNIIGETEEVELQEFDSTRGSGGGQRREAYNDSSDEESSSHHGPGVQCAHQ
UniProt P15208, residues 753-1372: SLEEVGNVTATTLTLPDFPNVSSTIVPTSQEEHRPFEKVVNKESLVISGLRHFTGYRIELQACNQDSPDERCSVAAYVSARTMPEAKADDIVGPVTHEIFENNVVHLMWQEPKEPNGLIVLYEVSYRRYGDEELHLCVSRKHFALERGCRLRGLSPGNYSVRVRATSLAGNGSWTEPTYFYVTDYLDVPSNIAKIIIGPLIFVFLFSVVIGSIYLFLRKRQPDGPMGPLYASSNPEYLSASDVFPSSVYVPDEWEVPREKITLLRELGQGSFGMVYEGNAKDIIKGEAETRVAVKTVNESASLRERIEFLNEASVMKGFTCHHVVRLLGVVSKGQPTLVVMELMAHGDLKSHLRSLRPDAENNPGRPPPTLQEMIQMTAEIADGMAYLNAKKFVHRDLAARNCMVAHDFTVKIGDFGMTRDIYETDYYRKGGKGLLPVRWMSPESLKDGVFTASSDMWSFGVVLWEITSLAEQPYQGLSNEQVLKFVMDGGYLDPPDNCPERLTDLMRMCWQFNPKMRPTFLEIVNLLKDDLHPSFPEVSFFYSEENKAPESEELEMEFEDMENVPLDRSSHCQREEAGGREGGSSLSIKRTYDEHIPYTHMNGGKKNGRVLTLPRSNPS

Key:
[1] = target: insulin receptor β subunit (IRβ), endogenous in HeLa cells (human (endogenous in HeLa)) (UniProt P06213); experiment: co-IP; IRβ antibody, lysates of DJ2−/− HeLa cells expressing FL, ΔJ or ΔC DNAJA2
[2] = target: insulin receptor β subunit (IRβ), endogenous in HeLa cells (human (endogenous in HeLa)) (UniProt P06213); experiment: proximity ligation; Duolink In Situ Red, IRβ with FL, ΔJ or ΔC DNAJA2 expressed in DJ2−/− HeLa cells
[3] = target: adaptor protein 2 (AP2) subunit beta 1 (AP2B1), endogenous in human cells (human (endogenous in HepG2 and HeLa)) (UniProt P63010); experiment: co-IP; AP2B1 antibody, lysates of DJ2−/− HeLa cells expressing FL, ΔJ or ΔC DNAJA2
[4] = target: insulin receptor β subunit (IRβ) in HepG2 cells (human (endogenous in HepG2)) (UniProt P06213); experiment: proximity ligation; Duolink In Situ Red on fixed, permeabilised HepG2 cells; for IRβ-AP2B1 in SiCtrl and SiDJ2 cells
[5] = target: HA-tagged IRβ, full-length (FL) (UniProt P06213); experiment: co-IP; HA antibody, lysates of HeLa cells expressing HA-tagged IRβ FL, ΔCD or ΔTCD; DNAJA2 blotted
[6] = target: insulin receptor β subunit (IRβ), endogenous in various cell lines (not named) (not stated (endogenous in various cell lines; human and mouse lines were used)) (UniProt P06213); experiment: co-IP; IRβ antibody, lysates of various cell lines (not named), in the presence or absence of insulin treatment; Protein G agarose; lysis buffer 50 mM Tris-HCl pH 7.4, 150 mM NaCl, 1% NP-40, 1 mM EDTA, 1% sodium deoxycholate
[7] = target: adaptor protein 2 (AP2) subunit beta 1 (AP2B1), endogenous in mouse cells and liver (mouse (endogenous in 4T1 and liver)) (UniProt Q9DBG3); experiment: co-IP; reverse: AP2B1 antibody, lysates of WT, DJ2−/− and DNAJA2-overexpressing 4T1 cells
[8] = target: adaptor protein 2 (AP2) subunit beta 1 (AP2B1), endogenous in human cells (human (endogenous in HepG2 and HeLa)) (UniProt P63010); experiment: co-IP; AP2B1 antibody, lysates of HeLa cells expressing WT or mutant HA-tagged IR

Substance: insulin receptor β subunit (IRβ), endogenous in HeLa cells (from UniProt P06213 763-1382)
binding [3]: binds

Substance: DNAJA2 (heat shock protein DNAJA2), endogenous in human cells (from UniProt O60884 1-412)
binding [4]: binds | binding [5]: binds

Substance: insulin receptor β subunit (IRβ), endogenous in mouse cells and liver (from UniProt P15208 753-1372)
binding [7]: binds

Substance: adaptor protein 2 (AP2) subunit beta 1 (AP2B1), endogenous in human cells (from UniProt P63010 1-937)
binding [1]: binds | binding [4]: binds

Next, values leading:

binding [1]: binds | binding [2]: binds
Substance: full-length (FL) DNAJA2 expressed in DJ2−/− HeLa cells (from UniProt O60884 1-412)

binding [6]: binds
Substance: DNAJA2, endogenous in various cell lines (not named) (from UniProt O60884 1-412)

binding [8]: binds
Substance: HA-tagged insulin receptor (IR), wild type (from UniProt P06213 28-1382)
